Test results from article PMC5592244.
Results are given in words; binding and its absence hold for the method and conditions named. Binding seen in cells or lysates may run through a third protein. Some entries that bind do so weakly or less than the wild type.

The chains behind the UniProt entries cited, without tags or fusion partners.
UniProt P35222: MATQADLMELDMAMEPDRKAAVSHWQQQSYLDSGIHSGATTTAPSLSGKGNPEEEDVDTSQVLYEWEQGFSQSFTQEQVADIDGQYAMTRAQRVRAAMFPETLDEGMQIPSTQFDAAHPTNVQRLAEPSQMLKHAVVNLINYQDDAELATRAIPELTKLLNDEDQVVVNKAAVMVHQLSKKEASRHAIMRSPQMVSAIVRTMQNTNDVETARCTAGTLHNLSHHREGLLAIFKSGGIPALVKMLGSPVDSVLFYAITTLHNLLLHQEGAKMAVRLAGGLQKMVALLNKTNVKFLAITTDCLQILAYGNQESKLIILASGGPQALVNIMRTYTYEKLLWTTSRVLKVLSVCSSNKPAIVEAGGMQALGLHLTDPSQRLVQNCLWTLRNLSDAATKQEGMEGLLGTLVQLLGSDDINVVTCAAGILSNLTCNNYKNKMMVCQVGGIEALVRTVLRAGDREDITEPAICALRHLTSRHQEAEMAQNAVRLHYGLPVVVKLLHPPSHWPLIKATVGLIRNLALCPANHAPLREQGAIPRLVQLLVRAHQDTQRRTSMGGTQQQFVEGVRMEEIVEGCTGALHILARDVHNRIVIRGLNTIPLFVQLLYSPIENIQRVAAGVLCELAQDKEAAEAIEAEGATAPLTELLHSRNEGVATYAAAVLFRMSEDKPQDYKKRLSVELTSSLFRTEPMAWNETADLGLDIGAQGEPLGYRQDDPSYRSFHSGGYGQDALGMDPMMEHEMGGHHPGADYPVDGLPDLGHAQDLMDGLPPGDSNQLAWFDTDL
UniProt Q04726: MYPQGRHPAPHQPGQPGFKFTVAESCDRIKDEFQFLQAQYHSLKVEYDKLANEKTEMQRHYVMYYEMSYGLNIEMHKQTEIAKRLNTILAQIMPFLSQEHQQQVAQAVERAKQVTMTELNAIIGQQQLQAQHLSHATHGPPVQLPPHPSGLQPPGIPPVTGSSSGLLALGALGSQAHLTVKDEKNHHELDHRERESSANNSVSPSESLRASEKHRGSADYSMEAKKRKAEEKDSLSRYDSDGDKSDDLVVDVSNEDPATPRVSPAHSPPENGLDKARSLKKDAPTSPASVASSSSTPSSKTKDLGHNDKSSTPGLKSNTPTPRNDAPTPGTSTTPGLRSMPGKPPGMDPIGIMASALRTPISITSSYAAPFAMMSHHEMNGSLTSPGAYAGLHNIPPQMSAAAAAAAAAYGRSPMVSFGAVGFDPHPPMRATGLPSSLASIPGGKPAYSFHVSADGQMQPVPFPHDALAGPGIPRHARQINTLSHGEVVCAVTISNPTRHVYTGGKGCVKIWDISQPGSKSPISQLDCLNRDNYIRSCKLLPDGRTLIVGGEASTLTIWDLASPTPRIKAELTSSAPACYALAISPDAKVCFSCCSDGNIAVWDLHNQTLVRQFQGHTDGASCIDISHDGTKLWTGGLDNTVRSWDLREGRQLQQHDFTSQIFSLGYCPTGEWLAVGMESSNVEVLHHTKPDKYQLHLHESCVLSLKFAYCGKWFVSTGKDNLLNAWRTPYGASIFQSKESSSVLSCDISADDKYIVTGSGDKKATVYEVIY

What was measured:
GFP-UBR5-CS (human) [1] = target: GFP-UBR5-CS (human) (UniProt O95071); test: co-IP; as a2, UBR5 KO cells not stimulated with LiCl (mock-treated)
GFP-UBR5-CS (human) [2] = target: GFP-UBR5-CS (human) (UniProt O95071); test: co-IP; co-expressed tagged proteins in HEK293T or UBR5 KO cells, with or without 6 hr of 20 mM LiCl; lysis buffer 20 mM Tris-HCl pH 7.4, 200 mM NaCl, 10% glycerol, 0.2% Triton X-100; affinity gel (Flag- or HA-) or GFP-trap 90 min at 4°C; western blot
GFP-UBR5-CS (human) [3] = target: GFP-UBR5-CS (human) (UniProt O95071); test: co-IP; as a2, β-catenin-depleted UBR5 KO cells (transient knockdown by CRISPR/Cas9 single-guide RNAs, puromycin selection)

Row | Substance | binding (GFP-UBR5-CS (human) [1]) | binding (GFP-UBR5-CS (human) [2]) | binding (GFP-UBR5-CS (human) [3])
1 | β-catenin (endogenous) (from UniProt P35222 1-781) | no binding (condition: cells not stimulated with LiCl) | binds | –
2 | HA-TLE3 (from UniProt Q04726 1-772) | – | binds | binds weakly
